# From PubChem BioAssay AID2551 (National Center for Advancing Translational Sciences (NCATS), 2010)
# Sequences of proteins named here, by UniProt entry; tags and fusion partners are left off. A change or cut given only in a name is not applied to a line headed by its entry.
# UniProt P51450: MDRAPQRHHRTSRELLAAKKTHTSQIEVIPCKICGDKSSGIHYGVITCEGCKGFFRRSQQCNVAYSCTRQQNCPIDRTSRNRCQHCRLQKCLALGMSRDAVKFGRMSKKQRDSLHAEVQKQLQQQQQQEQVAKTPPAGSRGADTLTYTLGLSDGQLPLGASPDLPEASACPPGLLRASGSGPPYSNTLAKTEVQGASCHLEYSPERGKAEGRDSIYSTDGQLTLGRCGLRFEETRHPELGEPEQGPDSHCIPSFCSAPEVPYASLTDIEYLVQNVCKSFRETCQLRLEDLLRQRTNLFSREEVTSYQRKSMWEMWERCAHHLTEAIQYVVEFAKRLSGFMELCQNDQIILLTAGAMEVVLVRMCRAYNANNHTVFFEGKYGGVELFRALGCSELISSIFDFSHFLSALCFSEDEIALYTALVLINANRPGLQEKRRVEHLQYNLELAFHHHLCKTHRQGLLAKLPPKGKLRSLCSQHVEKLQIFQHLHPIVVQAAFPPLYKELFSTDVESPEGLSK
# “And” between values parts separate entries of the source, which are not always exact repeats. Equal values may be shown once. Screen size: about 310,000 compounds; about 17,000 (5.5%) were called active. The inconclusive results got no clear call from the source; some entries with a clear call stand among them for comparison. Calls come from the whole dose curve; as a rule, active = well fitted inhibition curve with a large enough effect; inconclusive = small, poorly fitted or top-dose-only effect, or effect the other way; inactive = no such curve, though single readings can be large or run the other way. Where the call is inconclusive, the potency comes from a doubtful curve fit.
# Target: Nuclear receptor ROR-gamma (Mus musculus) (UniProt P51450)
# Test: qHTS for inhibitors of ROR gamma transcriptional activity; note: nearly all actives have a fitted effect of over 60% in size
# Details: Drosophila S2 Gal4-RORgamma UAS-luciferase reporter, 20 h; activity change, negative = inhibition: at 53.6 µM (top of the series)
# Summary of the method: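 Drosophila Schneider cells stably carrying a metallothionein-driven Gal4 DBD–ROR gamma fusion and a UAS-Photinus luciferase reporter were exposed to compound for 1 hr, then induced with copper sulfate (700 uM final) for 20 hr at ambient temperature before luminescence reading.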
# % is set by controls: 0 for no effect and ±100 for the full control effect; potency is the fitted concentration of half-maximal effect.
Structure (SMILES),Potency,"activity change, negative = inhibition"
O=C(NCC(O)c1ccccc1)c1ccccc1 (stereo unspecified),"inconclusive: 8.91 µM [inhibitor, partial curve]",
CCCCn1c(=NC(=O)c2cccnc2)c(C(=O)OCC)cc2c(=O)n3ccccc3nc21,,inactive: -22.4%
Cc1ccc(NC(=O)CN(C)C(=O)Cc2ccc(Cl)c(Cl)c2)cc1,"inconclusive: 12.6 µM [activator, single point]",
Cc1nn(CC(=O)Nc2ccc(Cl)cn2)c(C)c1[N+](=O)[O-],"inconclusive: 4.47 µM [inhibitor, single point]",
C/C(=C\C(=O)c1ccc(Br)cc1)NCc1ccc(C)cc1,"inconclusive: 1.26 µM [inhibitor, partial curve]",
Cc1nn(C)c(C)c1CNC(=O)Nc1ccc(Cl)cc1,"inconclusive: 35.5 µM [activator, partial curve, poor fit]",
CC(=O)c1cc2c(O)c(O)ccc2o1,"inconclusive: 6.31 µM [inhibitor, partial curve]",
CC(=O)N1c2ccc(S(=O)(=O)N(C)CC(=O)NCc3ccccc3)cc2CC1C (stereo unspecified),,inactive: 0.865%
CC(=O)C1=C(C)Nc2ncnn2C1c1cccc(Br)c1 (stereo unspecified),,inactive: -16%
CC(O)(CS(=O)(=O)Cc1cccc(C(F)(F)F)c1)C(=O)Nc1cccc(C(F)(F)F)c1 (stereo unspecified),"inconclusive: 17.8 µM [activator, partial curve]",
COc1ccc(CNc2nc(-c3cccnc3)nn2C(=O)c2ccco2)cc1,,inactive: -2.97%
CCCn1cnc2cc(NC(=O)c3ccco3)ccc21,"inconclusive: 10 µM [inhibitor, partial curve, poor fit]",
CC(=O)Nc1nc(C=C(Cl)Cl)cs1,"inconclusive: 6.31 µM [inhibitor, single point]",
CC1C2(C)OCC(C#N)(C(=N)O2)C1(C#N)C#N (stereo unspecified),,inactive: 9.87%
C=CCn1c(SCc2ccc(F)cc2)nc2c1c(=O)[nH]c(=O)n2C,,inactive: 37.3%
Cn1nnnc1SCC(=O)Nc1ccc(Oc2ccccc2)cc1,"inconclusive: 22.4 µM [activator, single point]",
O=C1Nc2ccc([N+](=O)[O-])cc2C1(O)N1CCCCC1 (stereo unspecified),"inconclusive: 15.8 µM [activator, single point]",
CCCc1ccc(-c2cc(C(=O)Nc3ccc([N+](=O)[O-])cn3)c3ccccc3n2)cc1,"inconclusive: 17.8 µM [activator, partial curve]",
O=C(c1cc2sccc2n1Cc1ccc(F)cc1)N1CCN(c2nc3ccccc3s2)CC1,"inconclusive: 6.31 µM [activator, full curve]",
O=c1c2ccccc2c(C=NCc2ccccn2)c(O)n1-c1ccccc1,"inconclusive: 4.47 µM [inhibitor, single point]",
COc1cc(CC(=O)Nc2ccc3c(c2)CCC3)cc(OC)c1OC,"inconclusive: 15.8 µM [activator, partial curve]",
CC(C)(C)OC(=O)N/N=C/c1ccc(N2CCOCC2)s1,,inactive: 22%
Cc1ccc(CN(CC(=O)NCCc2ccccc2)C(=O)CCCC(=O)Nc2cc(C)on2)cc1,,inactive: 1.38%
Cc1ccc(C)c(SCC(=O)Nc2nnc(-c3ccccc3)o2)c1,active: 2 µM,

Structure (SMILES),Potency,"activity change, negative = inhibition"
O=C(NCCCl)NNc1c(Cl)cc(Cl)cc1Cl,,inactive: -28.7%
COc1cccc(CC2CC(=O)N(c3ccc4c(C)cc(=O)oc4c3)C2=O)c1 (stereo unspecified),,inactive: 40%
CCS(=O)(=O)NCC(c1cccnc1)N1CCN(c2ccccc2)CC1 (stereo unspecified),"inconclusive: 0.005 µM [activator, full curve, poor fit]",
CC1(C)Cc2nc(NC3CCCCC3)c(C#N)cc2CO1,,inactive: -4.68%
O=C(Nc1nc(-c2ccccn2)cs1)c1ccc([N+](=O)[O-])o1,"inconclusive: 2 µM [inhibitor, full curve]",
CCNC(=S)N/N=C/c1ccc(F)cc1,active: 2.24 µM,
O=C(CNC(=O)c1cccs1)c1ccc(Br)cc1,,inactive: -44.8%
O=S(=O)(c1ccc(NC(=S)NCc2cccnc2)cc1)N1CCCCC1,"inconclusive: 10 µM [activator, partial curve]",
C=CCN1C(=O)/C(=C/c2ccc(-c3ccc(F)cc3)o2)SC1=S,"inconclusive: 3.16 µM [activator, single point]",
Cc1ccc(C)c2[nH]c(=O)c(C(c3nnnn3Cc3ccco3)N3CCc4ccccc4C3)cc12 (stereo unspecified),,inactive: -31.8%
COc1cc(C(=O)Oc2ccc3c(c2)OCC3=O)cc(OC)c1OC,"inconclusive: 35.5 µM [inhibitor, single point]",
Cc1noc(C)c1-c1nc(NC2CCNCC2)c2ccccc2n1,,inactive: -25%
COc1ccccc1CN=C1Nc2ccccc2CS1,"inconclusive: 28.2 µM [inhibitor, single point]",
Clc1ccc(-c2cn3cc(Br)ccc3n2)cc1Cl,"inconclusive: 10 µM [inhibitor, single point]",
COC(=O)c1cccc(/C=N/NC(N)=S)c1O,active: 2 µM,
CCOC(=O)/C=C/C(=O)Nc1ccccc1-c1ccccc1NC(=O)/C=C/C(=O)OCC,"inconclusive: 20 µM [inhibitor, single point]",
CCOC(=O)c1cccc(NC(=O)c2cc(C)nn2-c2ccccc2)c1,,inactive: -24.9%
Cc1ccc(S(=O)(=O)c2cn(Cc3ccc(F)cc3)c3cc4c(cc3c2=O)OCO4)cc1,"inconclusive: 35.5 µM [activator, single point]",
C/C(=C\C(=S)Nc1ccccc1)Nc1ccc2ccccc2c1,active: 5.62 µM,
O=C(COc1ccc2ccccc2c1)N/N=C/c1ccccn1,"inconclusive: 20 µM [inhibitor, single point]",
COc1cccc(Nc2nc(N)c([N+](=O)[O-])c(NCc3ccccc3)n2)c1,"inconclusive: 11.2 µM [activator, partial curve, poor fit]",
CN(CC(=O)Nc1ccccc1Br)C(=O)c1ccccc1-c1nc2ccccc2s1,,inactive: -19.6%
Cc1ccc(N/C=C/C(=O)c2cccs2)cc1,"inconclusive: 8.91 µM [inhibitor, partial curve, poor fit]",
CCc1ccc(C2NC(=S)NC3=C2C(=O)CC(C)(C)C3)cc1 (stereo unspecified),"inconclusive: 17.8 µM [inhibitor, single point]",

# Entries of single compounds, looked up by structure.
# `COc1cccc(Nc2nc(N)c([N+](=O)[O-])c(NCc3ccccc3)n2)c1` reads Potency: inconclusive: 11.2 µM [activator, partial curve, poor fit]
# `CC1(C)Cc2nc(NC3CCCCC3)c(C#N)cc2CO1` reads activity change, negative = inhibition: inactive: -4.68%
# `Cc1ccc(S(=O)(=O)c2cn(Cc3ccc(F)cc3)c3cc4c(cc3c2=O)OCO4)cc1` reads Potency: inconclusive: 35.5 µM [activator, single point]
# `CCOC(=O)/C=C/C(=O)Nc1ccccc1-c1ccccc1NC(=O)/C=C/C(=O)OCC` reads Potency: inconclusive: 20 µM [inhibitor, single point]

# Going on with the list.

Structure (SMILES),Potency,"activity change, negative = inhibition"
O=C1CCc2cc(OCCCCc3nnnn3C3CCCCC3)ccc2N1,"inconclusive: 17.8 µM [activator, partial curve, poor fit] and inconclusive: 12.6 µM [activator, partial curve] and inconclusive: 3.16 µM [inhibitor, single point]",
CCOc1cc(C2c3c(n[nH]c3C)C(=O)N2c2ccc(Br)cc2)ccc1O (stereo unspecified),"inconclusive: 35.5 µM [inhibitor, single point]",
COc1cc(/C=C2/C(=O)NN(c3cccc(C)c3)C2=O)ccc1OC(=O)c1ccco1,"inconclusive: 20 µM [activator, partial curve, poor fit]",
O=C(c1ccc2ccccc2c1)N1CCN(c2ccc([N+](=O)[O-])c(N3CCOCC3)c2)CC1,,inactive: 20.3%
O=C(C1CCCO1)N1N=C(c2ccc(Br)cc2)CC1c1ccco1 (stereo unspecified),"inconclusive: 17.8 µM [activator, single point]",
Cc1ccnc(SC2CC(=O)N(c3ccc(C(C)C)cc3)C2=O)n1 (stereo unspecified),"inconclusive: 4.47 µM [activator, full curve, poor fit]",
Cc1ccccc1C(=O)N1CCC(C(=O)Nc2ccc(S(=O)(=O)N3CCCCC3)cc2)CC1,"inconclusive: 11.2 µM [activator, partial curve]",
CCOC(=O)C1CCCN(C(=O)c2cc(Nc3ccc(OC)c(OC)c3)nc3ccccc23)C1 (stereo unspecified),"inconclusive: 11.2 µM [activator, partial curve]",
Cc1ccn2c(NC(C)(C)C)c(-c3cccs3)nc2c1,active: 11.2 µM,
Cn1c(N2CCOCC2)cc(=O)n(C)c1=O,,inactive: 7.22%
COCCNC(=O)C1CCN(C(=O)c2cc3sccc3n2Cc2ccc(F)cc2)CC1,"inconclusive: 14.1 µM [activator, single point]",
CN(C)c1ccc(NC2=C(Cl)C(=O)c3ccccc3C2=O)cc1,active: 15.8 µM,
Cc1nn(-c2ccccc2)cc1/C=N/O,"inconclusive: 3.16 µM [inhibitor, partial curve]",
Cc1cc[n+](C2=C([O-])c3ccccc3C(=O)/C2=N\S(=O)(=O)c2cccs2)cc1C,active: 15.8 µM,
COc1cc(OC)c2c(c1)OC(c1ccccc1)CC2=O (stereo unspecified),,inactive: 23.3%
O=C(c1cccc(Oc2c(Cl)cccc2[N+](=O)[O-])c1)N1CCCCC1,"inconclusive: 12.6 µM [activator, single point]",
N#Cc1cccc(-c2ccc3ncnc(NCc4ccccc4)c3c2)c1,"inconclusive: 35.5 µM [inhibitor, single point]",
COC(=O)N/N=C/c1c(C)nn(-c2cccc(Cl)c2)c1Cl,"inconclusive: 1.26 µM [activator, full curve, poor fit]",
COCc1nc2oc3ccc(C)cc3c(=O)c2cc1C(=O)OC,,inactive: -12.3%
COc1ccccc1C(=O)Nc1cccc(NC(=O)c2ccccc2C)c1,"inconclusive: 11.2 µM [activator, partial curve]",
CCN(CC(=O)NC(C)(C)C)Cc1nc2c(Br)cc(Br)cc2c(=O)[nH]1,active: 0.708 µM,
[O-][n+]1c(/C=C/c2ccccc2)ccc2ccccc21,"inconclusive: 15.8 µM [inhibitor, single point]",
COC(=O)c1ccc(C(=O)OC)c(NC(=S)N2CCN(c3ccc(F)cc3)CC2)c1,"inconclusive: 20 µM [inhibitor, single point]",
